Measured values from patent US20060276394A1, “METHODS AND COMPOSITIONS FOR TREATING NEUROLOGICAL DISORDERS” (WYETH, priority 2002, published 2006).

Tested on: Balb/C mice
Assay: mouse elevated zero maze (EZM)
Type: in vivo
Conditions: icv
Experimental: To assess the anxiolytic activity of NBI-31772, mice receiving intraventricular administration of NBI-31772 were tested in an elevated zero maze (EZM) or in a four-plate appratus (FPT). NBI-31722 (availabe from Calbiochem/EMD Biosciences, Inc. of San Diego, Calif.) was administered in a volume of 2 μl. Balb/C mice were used for the elevated zero maze and Swiss-Webster mice were used for the four-plate test. One-way analysis of variance (ANOVA) was performed on behavioral data to determine effects of test compound treatments, followed by Least Significant Difference Tests for a post hoc analysis. Data is presented as the mean±SEM.
These effects are similar to those seen with reference anxiolytic compounds chlordiazepoxide and diazepam (Ring et al., Psychopharmacology (Berl.), 2006, 185(2):218-225) and are indicative of anxiolytic-like activity of NBI-31772 in the EZM.

`O=C(O)c1cc2cc(O)c(O)cc2c(C(=O)c2ccc(O)c(O)c2)n1` [NBI-31772] was tested, and the “total distance moved (cm)” value (0.1-1.0 μg groups) was “no effect” and the “total distance moved (cm)” value (3 and 10 μg doses) was “significant increases”.
